{
  "source": "patent US10813788B2",
  "about": "“Implantable therapeutic device” (ForSight Vision4, Inc., priority 2009, dated 2020)",
  "key": {"[1]": {"experiment": "Release of fluorescein through exit port (needle) of syringe reservoirs, Examples 1 and 4", "assay_type": "physicochemical", "settings": "2.4 mg/mL fluorescein sodium, 0.14 mL reservoir, room temperature, slope 0.5-4.5 days"}, "[2]": {"experiment": "Measured release of fluorescein through porous frit structure, Example 15A", "assay_type": "physicochemical"}},
  "note": "Several values for one entry are separate records, joined by “and”; a condition that tells them apart may be missing. Identical values can stand only once. At least one structure is not confirmed: it was looked up by name or label, or the drawing left a doubt.",
  "data": [
    {"smiles": "O=C1OC2(c3ccc(O)cc3Oc3cc(O)ccc32)c2ccccc21", "note": "[Fluorescein, fluorescein sodium]", "values": [
      {"measurement": "Release Rate", "setting": "[1]; needle gauge 18, ID 0.838 mm, area 0.552 mm^2", "result": "10.8 µg/day and 9.4 µg/day"},
      {"measurement": "Release Rate", "setting": "[1]; needle gauge 23, ID 0.318 mm, area 0.079 mm^2", "result": "1.0 µg/day and 1.2 µg/day"},
      {"measurement": "Release Rate", "setting": "[1]; needle gauge 30, ID 0.14 mm, area 0.015 mm^2", "result": 0.6, "unit": "µg/day"},
      {"measurement": "RRI", "setting": "[2]; 2 mg/mL Fluorescein sodium, Frit #2 (0.031 x 0.049 in, media grade 0.2 um), 37 C, first four data points, FIG. 25A", "result": 0.02, "unit": "mm"},
      {"measurement": "mean RRI", "setting": "[2]; Frit #2, release for 90 days (excluding the first point), FIG. 25A-1", "result": 0.026, "unit": "mm"}
    ]}
  ]
}
